For assay [1], the target named is T1, Tah18 fused to the Binding domain (pGilda) (yeast) (UniProt Q12181).
T1 sequence: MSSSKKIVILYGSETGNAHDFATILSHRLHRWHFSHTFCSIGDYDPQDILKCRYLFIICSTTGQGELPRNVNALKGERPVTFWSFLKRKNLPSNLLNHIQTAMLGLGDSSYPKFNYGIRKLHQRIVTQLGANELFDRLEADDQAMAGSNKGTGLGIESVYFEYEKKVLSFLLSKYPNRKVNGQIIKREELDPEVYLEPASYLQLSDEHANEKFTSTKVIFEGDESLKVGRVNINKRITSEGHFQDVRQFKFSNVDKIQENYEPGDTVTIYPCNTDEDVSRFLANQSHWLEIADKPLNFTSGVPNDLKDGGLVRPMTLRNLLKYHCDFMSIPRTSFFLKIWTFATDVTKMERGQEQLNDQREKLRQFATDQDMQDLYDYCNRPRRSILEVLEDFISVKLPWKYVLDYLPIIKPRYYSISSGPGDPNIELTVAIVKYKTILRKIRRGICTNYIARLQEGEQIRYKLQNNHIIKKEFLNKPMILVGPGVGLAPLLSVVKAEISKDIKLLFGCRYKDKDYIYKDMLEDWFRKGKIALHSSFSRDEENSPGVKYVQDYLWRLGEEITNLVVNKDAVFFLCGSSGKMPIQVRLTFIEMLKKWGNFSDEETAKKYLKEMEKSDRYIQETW
Kind of assay: two-hybrid; LexA-based two-hybrid (Clontech), strain EGY48[p8op-lacZ]; Tah18 on the Binding domain (pGilda), partner on the Activating domain (pB42); growth and blue colour on GR and GRLX media.

By UniProt entry, the sequences of proteins in these tests, tags left out.
UniProt P36152: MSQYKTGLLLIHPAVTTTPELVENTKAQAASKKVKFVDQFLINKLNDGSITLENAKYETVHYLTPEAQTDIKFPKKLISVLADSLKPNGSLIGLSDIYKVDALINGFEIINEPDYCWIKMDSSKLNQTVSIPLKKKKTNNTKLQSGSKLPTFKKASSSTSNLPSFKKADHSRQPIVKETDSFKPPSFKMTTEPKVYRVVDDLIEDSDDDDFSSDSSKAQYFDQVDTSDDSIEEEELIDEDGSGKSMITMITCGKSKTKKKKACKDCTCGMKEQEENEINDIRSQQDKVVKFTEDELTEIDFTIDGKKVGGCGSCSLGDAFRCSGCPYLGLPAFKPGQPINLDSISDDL
UniProt Q6FI81: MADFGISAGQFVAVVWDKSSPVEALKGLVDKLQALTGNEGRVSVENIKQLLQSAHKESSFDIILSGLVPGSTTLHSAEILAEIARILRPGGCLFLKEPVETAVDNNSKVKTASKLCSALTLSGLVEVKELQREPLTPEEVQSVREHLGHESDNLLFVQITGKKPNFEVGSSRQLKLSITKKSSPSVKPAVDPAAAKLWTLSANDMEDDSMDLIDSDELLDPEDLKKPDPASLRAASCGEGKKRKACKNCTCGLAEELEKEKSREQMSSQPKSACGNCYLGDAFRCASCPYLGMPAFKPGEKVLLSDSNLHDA

In assay [2] the target is Hemagglutinin-tagged Dre2 (HA-Dre2) (yeast) (UniProt P36152). Kind of assay: co-IP; yeast lysate in co-IP buffer (50 mM HEPES-KOH pH 7.5, 140 mM NaCl, 1 mM EDTA, 1% Triton X-100, 0.1% Na-Deoxycholate); HA-coated agarose beads, 4°C for 4 hours; Western blot with anti-HA and anti-GFP.

No constants are given. Whether binding was seen depends on the method and setting. For part of these data: Binding seen in cells or lysates may run through a third protein. Some binding calls cover weakened binding; strength is not graded here. Tags and fused reporters may be left off the sequences shown.

On to “Human Ciapin1 (Cytokine Induced Apoptosis Inhibitor 1) fused to the Activating domain (pB42) (from UniProt Q6FI81 1-312)”, for which the binding entry in assay [1] is “binds”.
Same read-out and setting: the result for “Dre2 fused to the Activating domain (pB42) (from UniProt P36152 1-348)” reads “binds”.

B1: GFP-Tah18 (protein, UniProt Q12181 1-623)
chain: T1 sequence
Regarding B1, the binding result in assay [2] is “binds”.
